Data as given in PubChem BioAssay AID1259308 (NCATS, 2017).
In all, the deposit lists about 59,000 reagents; below is an unselected part. About 1,510 of all reagents (2.6%) were called active. 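Calls use total luciferase alone and ignore viability, so some active siRNAs may act by altering cell number.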 Reagents against one gene are numbered here. No sequences are given here.

- Assay: 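Genes whose loss raises luciferase production in HEK293 cells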 (primary screen)
- Cells: human HEK293 embryonic kidney cells stably expressing firefly luciferase (HEK-CMV-Luc2-Hygro)
- Reagent: single siRNA against human genes, 0.8 pmol siRNA per well
- Timing: 72 h
- Measured: 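Reporter luminescence and viable-cell signal on separate replicate plates, given as percent of non-targeting control and median/MAD z-scores, plus per-cell luciferase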
- Scale: total luciferase, z-score and total luciferase, % of control: higher = more reporter protein produced; luciferase per cell, z-score: higher = more reporter output per viable cell; viable cells, % of control: higher = more viable cells
- Hit rule: 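Active when the median/MAD z-score for overall luciferase is greater than 3; a gene was taken forward for validation with new siRNAs if at least two of its three siRNAs passed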
- Meaning of the calls: active = raised luciferase; inactive = no rise

Target gene | reagent no. | total luciferase, z-score | total luciferase, % of control | luciferase per cell, z-score | viable cells, % of control | Outcome
PCDHA12 (protocadherin alpha 12) | 1 | -1.44 | 53.3 | -1.36 | 85.1 | inactive
PCDHA12 (protocadherin alpha 12) | 2 | -0.605 | 69.8 | -1.12 | 105 | inactive
PCDHA12 (protocadherin alpha 12) | 3 | -1.42 | 53.5 | -1.07 | 79.3 | inactive
GLCE (glucuronic acid epimerase) | 1 | 0.326 | 88.4 | 0.24 | 92.7 | inactive
GLCE (glucuronic acid epimerase) | 2 | 2.57 | 133 | 1.95 | 89 | inactive
GLCE (glucuronic acid epimerase) | 3 | 1.72 | 116 | 0.572 | 111 | inactive
DIRAS1 (DIRAS family GTPase 1) | 1 | -1.18 | 58.3 | -1.15 | 88.1 | inactive
DIRAS1 (DIRAS family GTPase 1) | 2 | -0.265 | 76.6 | -0.455 | 96.5 | inactive
DIRAS1 (DIRAS family GTPase 1) | 3 | 0.000882 | 81.9 | -0.205 | 96.6 | inactive
EPS15L1 (epidermal growth factor receptor pathway substrate 15 like 1) | 1 | 0.0613 | 83.1 | 0.069 | 91.2 | inactive
EPS15L1 (epidermal growth factor receptor pathway substrate 15 like 1) | 2 | -0.0732 | 80.4 | 0.29 | 83.3 | inactive
EPS15L1 (epidermal growth factor receptor pathway substrate 15 like 1) | 3 | 0.139 | 84.6 | 0.646 | 79.8 | inactive
GMPPB (GDP-mannose pyrophosphorylase B) | 1 | 0.523 | 92.3 | -0.0256 | 104 | inactive
GMPPB (GDP-mannose pyrophosphorylase B) | 2 | -1.71 | 47.9 | -1.69 | 83.7 | inactive
GMPPB (GDP-mannose pyrophosphorylase B) | 3 | -0.432 | 73.3 | -0.636 | 96.8 | inactive
TMEM102 (transmembrane protein 102) | 1 | -1.56 | 50.9 | -1.67 | 88.3 | inactive
TMEM102 (transmembrane protein 102) | 2 | 0.26 | 87.1 | 0.32 | 89.4 | inactive
TMEM102 (transmembrane protein 102) | 3 | -1.12 | 59.5 | -0.407 | 74 | inactive
IGSF9 (immunoglobulin superfamily member 9) | 1 | 0.132 | 84.5 | 0.202 | 89.5 | inactive
IGSF9 (immunoglobulin superfamily member 9) | 2 | 0.389 | 89.6 | 0.375 | 90.7 | inactive
IGSF9 (immunoglobulin superfamily member 9) | 3 | 1.99 | 121 | 1.72 | 86.4 | inactive
CXorf58 (chromosome X open reading frame 58) | 1 | 0.268 | 87.2 | -0.0372 | 98.4 | inactive
CXorf58 (chromosome X open reading frame 58) | 2 | -0.0823 | 80.2 | 1.21 | 65.2 | inactive
CXorf58 (chromosome X open reading frame 58) | 3 | 0.273 | 87.3 | 0.109 | 94.8 | inactive
PNKP (polynucleotide kinase 3'-phosphatase) | 1 | 0.22 | 86.3 | 2.83 | 45.7 | inactive
PNKP (polynucleotide kinase 3'-phosphatase) | 2 | 0.326 | 88.4 | -0.0693 | 101 | inactive
PNKP (polynucleotide kinase 3'-phosphatase) | 3 | -0.0191 | 81.5 | -0.12 | 94 | inactive
PCDHAC2 (protocadherin alpha subfamily C, 2) | 1 | -0.147 | 79 | -0.154 | 91.9 | inactive
PCDHAC2 (protocadherin alpha subfamily C, 2) | 2 | -0.0946 | 80 | 0.271 | 83.2 | inactive
PCDHAC2 (protocadherin alpha subfamily C, 2) | 3 | -2.48 | 32.6 | -2.41 | 68.7 | inactive
TBXAS1 (thromboxane A synthase 1) | 1 | -1.03 | 61.5 | -1.56 | 104 | inactive
TBXAS1 (thromboxane A synthase 1) | 2 | -1.34 | 55.3 | -1.72 | 97.3 | inactive
TBXAS1 (thromboxane A synthase 1) | 3 | 1.35 | 109 | 1.61 | 79.5 | inactive
LENEP (lens epithelial protein) | 1 | 2.02 | 122 | 0.422 | 122 | inactive
LENEP (lens epithelial protein) | 2 | 0.706 | 95.9 | 0.24 | 101 | inactive
LENEP (lens epithelial protein) | 3 | -0.676 | 68.4 | -0.678 | 91.4 | inactive
CEP15 (centrosomal protein 15) | 1 | 0.618 | 94.2 | 0.686 | 87.9 | inactive
CEP15 (centrosomal protein 15) | 2 | 0.911 | 100 | 1.75 | 70.6 | inactive
CEP15 (centrosomal protein 15) | 3 | -0.156 | 78.8 | -0.688 | 106 | inactive
TMEM167B (transmembrane protein 167B) | 1 | 0.547 | 92.8 | 1.03 | 78.9 | inactive
TMEM167B (transmembrane protein 167B) | 2 | -1.14 | 59.2 | -1.17 | 90 | inactive
TMEM167B (transmembrane protein 167B) | 3 | 1.53 | 112 | 1.73 | 79.5 | inactive
GRIA2 (glutamate ionotropic receptor AMPA type subunit 2) | 1 | -0.788 | 66.2 | -0.578 | 86.1 | inactive
GRIA2 (glutamate ionotropic receptor AMPA type subunit 2) | 2 | 0.307 | 88 | 0.308 | 90.7 | inactive
GRIA2 (glutamate ionotropic receptor AMPA type subunit 2) | 3 | -2.13 | 39.6 | -3.6 | 114 | inactive
SHARPIN (SHANK associated RH domain interactor) | 1 | 0.893 | 99.7 | 0.813 | 89.9 | inactive
SHARPIN (SHANK associated RH domain interactor) | 2 | -0.299 | 75.9 | -0.145 | 88.2 | inactive
SHARPIN (SHANK associated RH domain interactor) | 3 | 0.761 | 97 | 0.204 | 103 | inactive
NPEPL1 (aminopeptidase like 1) | 1 | 0.452 | 90.9 | 0.246 | 95.2 | inactive
NPEPL1 (aminopeptidase like 1) | 2 | 2.83 | 138 | 2.94 | 71.1 | inactive
NPEPL1 (aminopeptidase like 1) | 3 | -0.536 | 71.2 | -1.15 | 108 | inactive
GRK4 (G protein-coupled receptor kinase 4) | 1 | -0.892 | 64.2 | -1.14 | 96.9 | inactive
GRK4 (G protein-coupled receptor kinase 4) | 2 | 0.435 | 90.5 | -0.342 | 111 | inactive
GRK4 (G protein-coupled receptor kinase 4) | 3 | 1.5 | 112 | 0.95 | 97.1 | inactive
GEMIN7 (gem nuclear organelle associated protein 7) | 1 | 2.4 | 130 | 1.61 | 94.8 | inactive
GEMIN7 (gem nuclear organelle associated protein 7) | 2 | 0.109 | 84.1 | 0.569 | 80.9 | inactive
GEMIN7 (gem nuclear organelle associated protein 7) | 3 | 2.85 | 139 | 3.16 | 67.3 | inactive
CLDN23 (claudin 23) | 1 | 0.000572 | 81.9 | -0.107 | 94.1 | inactive
CLDN23 (claudin 23) | 2 | 1.93 | 120 | 1.52 | 90 | inactive
CLDN23 (claudin 23) | 3 | -0.862 | 64.7 | -1.11 | 96.8 | inactive
OR51D1 (olfactory receptor family 51 subfamily D member 1) | 1 | 1.74 | 117 | 1.88 | 79.3 | inactive
OR51D1 (olfactory receptor family 51 subfamily D member 1) | 2 | 0.178 | 85.4 | 0.11 | 92.7 | inactive
OR51D1 (olfactory receptor family 51 subfamily D member 1) | 3 | 0.609 | 94 | 0.43 | 93.8 | inactive
SNHG29 (small nucleolar RNA host gene 29) | 1 | -0.182 | 78.3 | -0.232 | 92.9 | inactive
SNHG29 (small nucleolar RNA host gene 29) | 2 | 1.66 | 115 | 1.77 | 80.6 | inactive
SNHG29 (small nucleolar RNA host gene 29) | 3 | 0.304 | 87.9 | -0.0689 | 100 | inactive
ZNF324B (zinc finger protein 324B) | 1 | 2.09 | 123 | 2.23 | 76.6 | inactive
ZNF324B (zinc finger protein 324B) | 2 | 0.629 | 94.4 | 1.05 | 80.1 | inactive
ZNF324B (zinc finger protein 324B) | 3 | 2.02 | 122 | 1.64 | 88.4 | inactive
RSPH6A (radial spoke head 6 homolog A) | 1 | 0.42 | 90.2 | 0.965 | 78.2 | inactive
RSPH6A (radial spoke head 6 homolog A) | 2 | 0.466 | 91.1 | 0.308 | 93.9 | inactive
RSPH6A (radial spoke head 6 homolog A) | 3 | 0.279 | 87.4 | 0.363 | 88.8 | inactive
LHFPL7 (LHFPL tetraspan subfamily member 7) | 1 | -0.0284 | 81.3 | 0.401 | 81.8 | inactive
LHFPL7 (LHFPL tetraspan subfamily member 7) | 2 | -0.0699 | 80.5 | 0.387 | 81.2 | inactive
LHFPL7 (LHFPL tetraspan subfamily member 7) | 3 | -0.357 | 74.8 | 0.543 | 72.4 | inactive

Records above whose target name starts with N or n (3):
Target gene | reagent no. | total luciferase, z-score | total luciferase, % of control | luciferase per cell, z-score | viable cells, % of control | Outcome
NPEPL1 (aminopeptidase like 1) | 1 | 0.452 | 90.9 | 0.246 | 95.2 | inactive
NPEPL1 (aminopeptidase like 1) | 2 | 2.83 | 138 | 2.94 | 71.1 | inactive
NPEPL1 (aminopeptidase like 1) | 3 | -0.536 | 71.2 | -1.15 | 108 | inactive
